The results in this text go back to patent US20240408093A1, “HETEROBIFUNCTIONAL COMPOUNDS AND THEIR USE IN TREATING DISEASE” (HALDA THERAPEUTICS OPCO, INC., priority 2022, published 2024).

Chains of the proteins cited; added tags and fusions are not shown.
UniProt P15170, whole entry: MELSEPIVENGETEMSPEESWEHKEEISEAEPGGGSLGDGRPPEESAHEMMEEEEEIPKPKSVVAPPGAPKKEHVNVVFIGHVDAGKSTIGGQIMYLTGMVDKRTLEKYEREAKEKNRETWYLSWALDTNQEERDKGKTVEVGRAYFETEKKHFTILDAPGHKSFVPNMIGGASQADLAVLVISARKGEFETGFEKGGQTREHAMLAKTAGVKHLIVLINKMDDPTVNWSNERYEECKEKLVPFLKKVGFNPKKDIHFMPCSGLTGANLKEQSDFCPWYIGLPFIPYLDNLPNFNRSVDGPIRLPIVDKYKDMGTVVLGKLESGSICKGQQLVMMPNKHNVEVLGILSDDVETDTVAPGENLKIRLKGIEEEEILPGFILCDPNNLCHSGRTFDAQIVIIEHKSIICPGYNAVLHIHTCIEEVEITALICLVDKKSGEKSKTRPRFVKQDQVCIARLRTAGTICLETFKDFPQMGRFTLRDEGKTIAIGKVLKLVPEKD
UniProt Q96SW2, whole entry: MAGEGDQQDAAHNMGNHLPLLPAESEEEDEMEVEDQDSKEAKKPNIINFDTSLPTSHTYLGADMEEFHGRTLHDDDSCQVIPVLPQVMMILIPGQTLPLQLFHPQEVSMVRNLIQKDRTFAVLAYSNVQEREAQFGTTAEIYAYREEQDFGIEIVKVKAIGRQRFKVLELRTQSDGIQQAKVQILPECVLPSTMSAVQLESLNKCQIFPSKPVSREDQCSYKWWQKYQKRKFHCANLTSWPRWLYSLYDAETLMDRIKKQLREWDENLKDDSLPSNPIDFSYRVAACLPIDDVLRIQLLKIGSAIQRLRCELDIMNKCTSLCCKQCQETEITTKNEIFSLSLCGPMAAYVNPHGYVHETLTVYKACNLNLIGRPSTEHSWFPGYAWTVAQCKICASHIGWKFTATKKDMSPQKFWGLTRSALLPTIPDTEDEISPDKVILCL
UniProt O75909, whole entry: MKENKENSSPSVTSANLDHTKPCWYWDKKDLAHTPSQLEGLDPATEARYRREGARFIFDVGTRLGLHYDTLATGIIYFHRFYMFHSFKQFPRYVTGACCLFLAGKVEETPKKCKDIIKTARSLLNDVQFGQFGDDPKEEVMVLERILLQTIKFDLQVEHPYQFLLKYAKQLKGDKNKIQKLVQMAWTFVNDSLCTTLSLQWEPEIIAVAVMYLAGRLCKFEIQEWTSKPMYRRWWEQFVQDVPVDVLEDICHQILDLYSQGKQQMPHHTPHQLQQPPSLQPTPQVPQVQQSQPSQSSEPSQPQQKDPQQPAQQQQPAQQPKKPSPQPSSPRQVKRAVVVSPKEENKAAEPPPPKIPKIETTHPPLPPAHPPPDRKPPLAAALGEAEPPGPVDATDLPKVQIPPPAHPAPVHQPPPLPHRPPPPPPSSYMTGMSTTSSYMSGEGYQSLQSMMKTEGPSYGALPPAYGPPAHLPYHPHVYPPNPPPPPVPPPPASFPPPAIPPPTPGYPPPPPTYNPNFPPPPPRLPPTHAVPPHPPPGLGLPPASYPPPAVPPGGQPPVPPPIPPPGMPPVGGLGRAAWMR
UniProt Q16531, whole entry: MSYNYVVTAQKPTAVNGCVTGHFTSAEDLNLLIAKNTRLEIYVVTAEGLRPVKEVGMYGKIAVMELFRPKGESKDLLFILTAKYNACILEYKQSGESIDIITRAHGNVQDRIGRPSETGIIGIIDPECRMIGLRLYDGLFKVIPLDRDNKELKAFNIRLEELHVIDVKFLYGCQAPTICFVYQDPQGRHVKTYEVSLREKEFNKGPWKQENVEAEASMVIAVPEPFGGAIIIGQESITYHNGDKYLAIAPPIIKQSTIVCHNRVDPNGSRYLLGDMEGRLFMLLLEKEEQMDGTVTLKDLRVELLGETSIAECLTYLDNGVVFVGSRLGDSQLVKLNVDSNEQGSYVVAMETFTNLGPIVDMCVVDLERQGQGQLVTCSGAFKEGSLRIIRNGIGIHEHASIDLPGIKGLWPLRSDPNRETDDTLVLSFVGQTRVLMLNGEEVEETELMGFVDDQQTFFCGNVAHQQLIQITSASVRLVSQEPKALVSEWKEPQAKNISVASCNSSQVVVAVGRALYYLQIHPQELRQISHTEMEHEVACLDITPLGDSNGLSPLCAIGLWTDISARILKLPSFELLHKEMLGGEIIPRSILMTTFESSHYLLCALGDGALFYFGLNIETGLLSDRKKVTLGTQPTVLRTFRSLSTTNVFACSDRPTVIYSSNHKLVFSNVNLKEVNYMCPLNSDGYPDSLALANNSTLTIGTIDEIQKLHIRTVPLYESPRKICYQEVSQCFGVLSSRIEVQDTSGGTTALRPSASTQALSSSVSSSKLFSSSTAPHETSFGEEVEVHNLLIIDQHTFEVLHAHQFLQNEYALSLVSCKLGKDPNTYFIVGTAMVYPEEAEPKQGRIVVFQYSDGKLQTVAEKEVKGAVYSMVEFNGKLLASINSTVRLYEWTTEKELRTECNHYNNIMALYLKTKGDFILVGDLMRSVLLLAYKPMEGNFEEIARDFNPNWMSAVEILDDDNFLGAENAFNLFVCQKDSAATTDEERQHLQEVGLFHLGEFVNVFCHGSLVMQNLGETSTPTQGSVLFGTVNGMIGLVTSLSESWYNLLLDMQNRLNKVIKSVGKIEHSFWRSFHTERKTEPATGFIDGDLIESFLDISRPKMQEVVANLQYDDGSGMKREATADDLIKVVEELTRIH
UniProt Q9NYV4, whole entry: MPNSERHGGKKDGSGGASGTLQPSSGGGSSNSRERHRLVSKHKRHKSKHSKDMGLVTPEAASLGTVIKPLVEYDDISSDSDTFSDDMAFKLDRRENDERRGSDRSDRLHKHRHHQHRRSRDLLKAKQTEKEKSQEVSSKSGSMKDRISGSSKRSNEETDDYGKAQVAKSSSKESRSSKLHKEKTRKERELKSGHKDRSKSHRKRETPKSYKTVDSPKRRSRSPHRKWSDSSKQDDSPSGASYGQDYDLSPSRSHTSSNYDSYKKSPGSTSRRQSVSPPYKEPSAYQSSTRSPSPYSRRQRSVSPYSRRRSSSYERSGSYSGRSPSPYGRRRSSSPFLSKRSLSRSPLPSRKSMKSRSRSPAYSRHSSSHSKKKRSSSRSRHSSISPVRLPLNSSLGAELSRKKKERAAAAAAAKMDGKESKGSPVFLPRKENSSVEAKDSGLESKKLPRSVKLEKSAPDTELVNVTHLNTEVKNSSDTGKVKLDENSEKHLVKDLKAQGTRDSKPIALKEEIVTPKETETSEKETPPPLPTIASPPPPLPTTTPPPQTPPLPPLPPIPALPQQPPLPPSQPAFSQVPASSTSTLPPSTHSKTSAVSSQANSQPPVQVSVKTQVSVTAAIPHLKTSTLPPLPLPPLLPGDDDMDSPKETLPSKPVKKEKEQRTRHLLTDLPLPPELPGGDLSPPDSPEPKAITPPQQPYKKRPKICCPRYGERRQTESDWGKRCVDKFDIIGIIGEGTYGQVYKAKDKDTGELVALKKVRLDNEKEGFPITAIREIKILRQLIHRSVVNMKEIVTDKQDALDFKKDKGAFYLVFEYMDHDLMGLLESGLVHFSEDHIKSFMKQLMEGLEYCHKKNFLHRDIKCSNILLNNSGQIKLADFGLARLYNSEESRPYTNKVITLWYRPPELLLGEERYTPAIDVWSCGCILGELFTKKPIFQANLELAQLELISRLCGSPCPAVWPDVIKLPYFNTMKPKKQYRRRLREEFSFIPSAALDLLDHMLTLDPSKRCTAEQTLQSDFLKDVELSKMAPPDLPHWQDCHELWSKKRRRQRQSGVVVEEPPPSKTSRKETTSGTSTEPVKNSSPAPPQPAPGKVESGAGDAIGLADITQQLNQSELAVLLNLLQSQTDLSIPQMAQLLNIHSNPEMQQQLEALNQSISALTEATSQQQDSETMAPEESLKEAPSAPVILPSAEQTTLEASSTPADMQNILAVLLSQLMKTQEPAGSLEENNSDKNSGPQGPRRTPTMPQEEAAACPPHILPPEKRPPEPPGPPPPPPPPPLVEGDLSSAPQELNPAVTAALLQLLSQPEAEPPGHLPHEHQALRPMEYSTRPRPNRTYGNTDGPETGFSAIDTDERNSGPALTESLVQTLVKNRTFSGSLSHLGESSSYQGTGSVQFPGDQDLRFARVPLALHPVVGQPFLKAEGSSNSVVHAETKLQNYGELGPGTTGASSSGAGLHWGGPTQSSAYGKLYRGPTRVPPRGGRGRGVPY

Where two headings read alike, the source gives them in different places. The structures given here were assigned with low confidence; some may be wrong. Some results are limits rather than exact numbers.

For assay [1], the target named is GSPT1 (Homo sapiens, UniProt P15170+Q96SW2). As to the kind of experiment: GSPT1 HiBiT degradation assay. The following applies: HEK293 LgBiT GSPT1 HiBiT cells, 6 hours. From the text: Promega developed a HEK293 cell line that constitutively expresses LgBiT protein and GSPT1_HiBiT fusion protein. When both proteins are present, the HiBiT portion of the fusion protein combines with LgBiT protein to form a functional luciferase enzyme. Endurazine, a cell permeable small molecule, is converted by cellular esterases into furimazine, which the luciferase enzyme uses as a substrate to generate luminescence. When GSPT1 is degraded, the HiBit is also degraded. This prevents formation of fully functional luciferase, leading to a loss in luminescence. GSPT1 degradation therefore correlates with a decrease in luminescence and can be measured continuously over time. The concentration of compound at which 50% GSPT1 degradation occurs (DC50) may be calculated using this system.
HEK293 LgBiTGSPT1 HiBiT CRISPR Knock-in cells were cultured in DMEM Media supplemented with 10% Heat-inactivated FBS, 1% Penicillin/Streptomycin, 200 μg/mL hygromycin and stored in a humidified incubator set at 37° C. and 5% CO2. […] After 6 hours, the plate was read on a Perkin Elmer MultiMode Plate Reader Envision 2105 to measure luminescence signal. Data were plotted in Prism (Graphpad) and the concentration of compound at which 50% GSPT1 degradation occurs (DC50) was calculated.

The test system of assay [2] is GSPT1. Put plainly: Payload release assay (DC50 readout), GSPT1 degradation in the presence of recombinant target protein. As to conditions: I-series compounds (GSPT1 readout inferred). How it is done: (§1) Exemplary compounds were tested for ability to cause degradation of CCNK or GSPT1 in the presence of recombinant target protein.
(§2) HEK293 LgBiT/GSPT1 HiBiT CRISPR Knock-in cells (Promega) were cultured in DMEM (Gibco 11995), supplemented with 10% Heat-inactivated FBS (Gibco A38400-01) and 1% Penicillin/Streptomycin (Gibco 15140-122) and 200 Vg/ml Hygromycin B (Gibco 10-687-010) at 37° C. with 5% CO2 in a humidified tissue culture incubator. HEK293 LgBiT/CCNK HiBiT cells (in-house, described above) were cultured in DMEM (Gibco 11995), supplemented with 10% Heat-inactivated FBS (Gibco A38400-01) and 1% Penicillin/Streptomycin (Gibco 15140-122) 200 Vg/ml Hygromycin B (Gibco 10-687-010), and 1 Vg/ml Puromycin Dihydrochloride (Thermo A1113803) at 37° C. with 5% CO2 in a humidified tissue culture incubator. Cells were seeded (1000 cells/well for HEK293 LgBiT/GSPT1 HiBiT cells or 3000 cells/well for HEK293 LgBiT/CCNK HiBiT cells) 384-well, tissue culture-treated white plates (Perkin Elmer 6007680) in 10 μL media lacking selection for 18-24 hours. Plates were spun at 300 g for 30 seconds and stored in the incubator overnight. […] After 6 hours the plate was read on Envision MultiMode Plate Reader 2105 (Perkin Elmer) to measure luminescence signal. […]

Assay [3] deals with CCNK (Homo sapiens, UniProt O75909+Q16531+Q9NYV4). As to the kind of experiment: CCNK HiBiT degradation assay. As to conditions: HEK293 LgBiT/CCNK HiBiT cells, 6 hours. The method, then: HEK293 LgBiT cells (Promega) were cultured in DMEM (Gibco 11995), supplemented with 10% Heat-inactivated FBS (Gibco A38400-01) and 1% Penicillin/Streptomycin (Gibco 15140-122) and 200 μg/ml Hygromycin B (Gibco 10-687-010) at 37° C. with 5% CO2 in a humidified tissue culture incubator. Cells were made stable for CCNK fused to a C-terminal HiBiT peptide by lentiviral transduction, followed by selection with 1 μg/ml Puromycin Dihydrochloride (Thermo A1113803). HEK293 LgBiT/CCNK HiBiT cells were seeded at 3000 cells/well in 384-well, tissue culture-treated white plates (Perkin Elmer 6007680) in 25 μL media lacking selection for 18-24 hours. Plates were spun at 300 g for 30 seconds and stored in the incubator overnight. After 24 hours, compounds were titrated in DMSO and added to media supplemented with Endurazine Substrate (Promega N2570). A 25 ul aliquot of 2× compound/endurazine in media were then added to the 384-well microplate with seeded cells. (Endurazine was used at a final concentration of 0.5×). The plate was spun at 300 g for 30 seconds and stored in the incubator. After 6 hours the plate was read on Envision MultiMode Plate Reader 2105 (Perkin Elmer) to measure luminescence signal. Data were plotted in Prism (Graphpad) and the concentration of compound at which 50% CCNK degradation occurs (DC50) was calculated.

For assay [4], the system named is CCNK. Put plainly: Payload release assay (DC50 readout), CCNK degradation in the presence of recombinant target protein. As to conditions: II-series compounds (CCNK readout inferred). How it is done:
as §1, §2

[5] abbreviates: read-out: DC50 at 0 μM KRAS G12C, 0 μM recombinant KRAS G12C.
The mark [6] stands for this setting: read-out: DC50 at 5 μM KRAS G12C, 5 μM recombinant KRAS G12C.

In the case of `C=C(COC(=O)NCCc1cc(Cl)cc(NC(=O)NCc2ccc3c(c2)CN(C2CCC(=O)NC2=O)C3=O)c1)C(=O)N1CCN(c2nc(OC[C@@H]3CCCN3C)nc3c2CCN(c2cccc4cccc(Cl)c24)C3)C[C@@H]1CC#N` (stereo partly drawn), the figures for the DC50 in assay [1], in assay [2] (setting [5]) and in assay [2] (setting [6]) were over 2500 nM, over 10000 nM and under 250 nM, respectively.
On to `C=C(COC(=O)N1CCN(c2nc(NCc3nc4cc(C)ccc4[nH]3)n3ncc(Br)c3n2)CC1)C(=O)N1CCN(c2nc(OC[C@@H]3CCCN3C)nc3c2CCN(c2cccc4cccc(Cl)c24)C3)C[C@@H]1CC#N`, for which the half-maximal degradation concentration (DC50) in assay [3], in assay [4] (setting [5]) and in assay [4] (setting [6]) was under 250 nM in each case.
